Test results: US20030082723

Biological target: T1, Cre recombinase (bacteriophage P1) (UniProt P06956)
T1 sequence (looked up, limits assumed): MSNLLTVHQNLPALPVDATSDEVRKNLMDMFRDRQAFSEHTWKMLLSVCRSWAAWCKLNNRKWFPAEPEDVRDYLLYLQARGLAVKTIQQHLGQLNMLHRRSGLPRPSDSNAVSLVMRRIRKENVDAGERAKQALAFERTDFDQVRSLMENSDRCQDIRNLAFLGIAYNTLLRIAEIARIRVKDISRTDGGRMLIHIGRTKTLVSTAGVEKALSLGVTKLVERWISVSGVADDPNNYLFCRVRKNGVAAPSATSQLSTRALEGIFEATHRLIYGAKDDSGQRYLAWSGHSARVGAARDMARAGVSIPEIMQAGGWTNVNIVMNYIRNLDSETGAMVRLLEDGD
Assay: activity in cells
Details: 30 C, less efficient in p2725, protein in cells, protein details: expressed from plasmid p2676 in E. coli, only the site is given

| Sequence | activity on this sequence (efficient recombination with directly oriented lox71 in E. coli (p2722, p2724)) | activity on this sequence (efficient recombination with directly oriented lox66 in E. coli (p2722, p2724)) |
| --- | --- | --- |
| ATTCCATAACTTCGTATAGCATACATTATACGAACGGTATCTCG (double strand) [lox66 (with flanks)] | active | – |
| GCTTCTACCGTTCGTATAGCATACATTATACGAAGTTATCTCTT (double strand) [lox71 (with flanks)] | – | active |

Protein sequences can lack the tags named with them.
